PubChem BioAssay AID686938 | Drosophila RNAi Screening Center, 2013
The screen tested about 23,000 reagents; this is a random part of those that have a named target and a result. In the full data, 75 (0.33%) are marked active. 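Raw plate signals without normalisation; calls rest on plate z-scores that were not deposited; ratio present for only 364 wells.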 Reagents against one gene are numbered here. Names joined by + are all predicted targets of the reagent. Not given: the dose of the treatment.

Test: 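Looking for CRAC channel components and the factors controlling them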 (primary screen)
System: Drosophila S2R+ cells
Reagent: long dsRNA against Drosophila genes, about 0.25 µg dsRNA per well, roughly 10,000 cells
Duration: 5 days of knock-down before the calcium assay
Challenge: thapsigargin (SERCA pump blocker) to empty calcium stores; entry signal taken 4 min after adding it
Measured: 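Per-well fluo-4 fluorescence in two replicates, unnormalised, measured in resting cells and 4 min after store depletion by the SERCA blocker thapsigargin; ratio of the two present in few wells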
Scale: calcium entry signal: higher = stronger calcium signal after store depletion; entry to resting ratio: higher = more calcium entry relative to resting level; resting calcium signal: higher = higher resting calcium signal
Hit rule: 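Hit if the duplicate-averaged plate z-score for entry over resting signal is under −3; wells with weak total dye signal (Fmax z < −2) or more than 5 off-targets removed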
Calls: active = strongly reduced calcium entry; inactive = no strong reduction

Gene | reagent | calcium entry signal, replicate 1 (fluorescence units) | calcium entry signal, replicate 2 (fluorescence units) | entry to resting ratio | resting calcium signal, replicate 1 (fluorescence units) | resting calcium signal, replicate 2 (fluorescence units) | call
CG13887 (GeneID 38096) | 1 | 2.56e7 | 2.41e7 | – | 1.28e7 | 1.11e7 | inactive
Naa20A (GeneID 32962) | 1 | 2.14e7 | 2.19e7 | – | 1.09e7 | 9.75e6 | inactive
cold (GeneID 33237) | 1 | 4.34e7 | – | – | 2.02e7 | – | inactive
CG33090 (GeneID 34835) | 1 | 4.63e7 | – | – | 2.18e7 | – | inactive
exd (GeneID 32567) | 1 | 4.52e7 | 2.77e7 | – | 2.28e7 | 1.43e7 | inactive
RpL10 (GeneID 43864) | 1 | 1.08e7 | 1.52e7 | – | 7.69e6 | 9.85e6 | inactive
CG4151 (GeneID 31465) | 1 | 2.50e7 | 3.73e7 | – | 1.21e7 | 1.72e7 | inactive
hubl (GeneID 246567) | 1 | 3.48e7 | 3.98e7 | – | 1.73e7 | 1.89e7 | inactive
CG14304 (GeneID 42232) | 1 | 4.72e7 | 4.61e7 | – | 6.19e7 | 2.27e7 | inactive
CCHa1 (GeneID 41711) | 1 | 3.07e7 | 4.69e7 | – | 1.54e7 | 6.22e7 | inactive
CG17118 (GeneID 34478) | 1 | 2.58e7 | 3.52e7 | – | 1.18e7 | 1.62e7 | inactive
Rrp46 (GeneID 41270) | 1 | 2.38e7 | 2.29e7 | – | 1.45e7 | 1.36e7 | inactive
dpr12 (GeneID 50320) | 1 | 2.08e7 | 4.35e7 | – | 1.22e7 | 1.96e7 | inactive
dpr12 (GeneID 50320) | 2 | 4.23e7 | 5.52e7 | – | 2.29e7 | 2.33e7 | inactive
dpr12 (GeneID 50320) | 3 | 3.77e7 | 4.26e7 | – | 1.82e7 | 1.81e7 | inactive
Ccp84Ae (GeneID 40821) | 1 | 4.85e7 | 3.81e7 | – | 2.30e7 | 1.66e7 | inactive
CG12519 (GeneID 40114) | 1 | 2.53e7 | 5.42e7 | – | 1.22e7 | 2.16e7 | inactive
CG12519 (GeneID 40114) | 2 | 3.64e7 | 3.67e7 | – | 2.18e7 | 1.68e7 | inactive
mio (GeneID 33399) | 1 | 3.46e7 | – | – | 1.64e7 | – | inactive
mio (GeneID 33399) | 2 | 2.79e7 | 4.08e7 | – | 1.44e7 | 2.36e7 | inactive
Aatf (GeneID 33943) | 1 | 2.14e7 | 2.32e7 | – | 1.18e7 | 1.24e7 | inactive
barc (GeneID 40369) | 1 | 2.31e7 | 2.61e7 | – | 1.45e7 | 2.02e7 | inactive
key (GeneID 37967) | 1 | 4.66e7 | – | – | 2.28e7 | – | inactive
CG18132 (GeneID 33333) | 1 | 4.48e7 | 6.04e7 | – | 1.99e7 | 2.49e7 | inactive
CAH15 (GeneID 37366) | 1 | 4.72e7 | 4.40e7 | – | 2.00e7 | 1.79e7 | inactive
FarO (GeneID 45707) | 1 | 3.55e7 | 6.37e7 | 2.1 | 1.72e7 | 2.62e7 | inactive
fs(1)Ya (GeneID 31263) | 1 | 3.69e7 | 4.50e7 | – | 1.87e7 | 2.10e7 | inactive
fs(1)Ya (GeneID 31263) | 2 | 3.26e7 | 3.36e7 | – | 1.75e7 | 1.57e7 | inactive
Bap60 (GeneID 32268) | 1 | 4.98e7 | 4.66e7 | – | 3.02e7 | 2.96e7 | inactive
CG12935 (GeneID 36134) | 1 | 4.89e7 | 4.52e7 | – | 2.17e7 | 2.05e7 | inactive
saturn (GeneID 317880) | 1 | 2.87e7 | 3.08e7 | – | 1.36e7 | 1.47e7 | inactive
Jon65Aiii (GeneID 38683) | 1 | 3.53e7 | 2.68e7 | – | 2.44e7 | 1.15e7 | inactive
CG13723 (GeneID 39925) | 1 | 2.59e7 | 5.56e7 | – | 1.38e7 | 2.12e7 | inactive
CG6833 (GeneID 39559) | 1 | 2.27e7 | 3.28e7 | – | 1.21e7 | 2.16e7 | inactive
CG15169 (GeneID 35161) | 1 | 3.58e7 | 5.20e7 | – | 1.81e7 | 2.08e7 | inactive
Sobp (GeneID 36260) | 1 | 3.01e7 | 2.94e7 | – | 1.33e7 | 1.40e7 | inactive
COX2 (retired record) (GeneID 192470) | 1 | 3.20e7 | 3.73e7 | – | 1.88e7 | 1.78e7 | inactive
Gr64d + Gr64e | 1 | 4.07e7 | 1.64e7 | – | 2.12e7 | 8.99e6 | inactive
CG16974 (GeneID 34713) | 1 | 4.98e7 | – | – | 2.41e7 | – | inactive
stau (GeneID 37065) | 1 | 3.51e7 | 3.89e7 | – | 1.70e7 | 1.77e7 | inactive
Mulk (GeneID 326168) | 1 | 3.80e7 | – | – | 1.95e7 | – | inactive
CG6340 (GeneID 32482) | 1 | 3.53e7 | 7.15e7 | – | 1.76e7 | 3.88e7 | inactive
gammaSnap2 (GeneID 41239) | 1 | 2.49e7 | 2.19e7 | – | 1.34e7 | 1.15e7 | inactive
CG13667 (GeneID 38956) | 1 | 3.96e7 | 3.02e7 | – | 2.68e7 | 1.47e7 | inactive
MstProx (GeneID 40890) | 1 | 3.53e7 | 5.34e7 | – | 1.82e7 | 2.56e7 | inactive
MstProx (GeneID 40890) | 2 | 2.85e7 | 1.96e7 | – | 1.42e7 | 1.03e7 | inactive
sn (GeneID 31717) | 1 | 2.81e7 | 4.56e7 | – | 1.35e7 | 2.17e7 | inactive
CG14107 (GeneID 39498) | 1 | 2.47e7 | 4.50e7 | – | 1.22e7 | 1.75e7 | inactive
CG6403 (GeneID 43220) | 1 | 2.79e7 | 4.48e7 | – | 1.47e7 | 2.01e7 | inactive
Debcl (GeneID 53585) | 1 | 4.86e7 | – | – | 2.39e7 | – | inactive
CG5043 (GeneID 35046) | 1 | 4.19e7 | 4.05e7 | – | 1.95e7 | 1.83e7 | inactive
Kif3C (GeneID 43820) | 1 | 5.50e7 | 5.47e7 | 2 | 2.72e7 | 2.28e7 | inactive
Kif3C (GeneID 43820) | 2 | 5.56e7 | 4.72e7 | 2.2 | 2.58e7 | 1.93e7 | inactive
CG8043 (GeneID 41030) | 1 | 3.47e7 | 3.02e7 | – | 1.69e7 | 1.40e7 | inactive
Lmx1a (GeneID 39406) | 1 | 3.45e7 | 5.08e7 | – | 1.88e7 | 2.42e7 | inactive
Lmx1a (GeneID 39406) | 2 | 2.58e7 | 4.41e7 | – | 1.51e7 | 2.22e7 | inactive
Yp1 (GeneID 31939) | 1 | 3.93e7 | 4.12e7 | – | 2.03e7 | 2.27e7 | inactive
Ref1 (GeneID 44029) | 1 | 4.64e7 | 5.30e7 | – | 1.86e7 | 2.27e7 | inactive
Ref1 (GeneID 44029) | 2 | 3.72e7 | 4.44e7 | – | 1.62e7 | 2.47e7 | inactive
CG14971 (GeneID 38429) | 1 | 4.67e7 | 3.97e7 | – | 2.76e7 | 1.58e7 | inactive
Or69a (GeneID 2768964) | 1 | 2.91e7 | 4.21e7 | – | 1.47e7 | 1.85e7 | inactive
bib (GeneID 34330) | 1 | 4.45e7 | – | – | 2.25e7 | – | inactive
bwa (GeneID 250736) | 1 | 2.13e7 | 4.60e7 | – | 1.08e7 | 1.75e7 | inactive
bwa (GeneID 250736) | 2 | 3.55e7 | 3.28e7 | – | 1.51e7 | 1.44e7 | inactive
CG18635 (GeneID 37031) | 1 | 3.55e7 | 3.38e7 | – | 2.00e7 | 1.62e7 | inactive
dmrt93B (GeneID 42494) | 1 | 3.98e7 | 4.91e7 | – | 6.16e7 | 2.10e7 | inactive
fan (GeneID 43926) | 1 | 3.47e7 | 4.05e7 | – | 1.54e7 | 1.87e7 | inactive
Sgt (GeneID 35052) | 1 | 4.32e7 | – | – | 2.19e7 | – | inactive
CR40354 (GeneID 10178779) | 1 | 2.41e7 | 2.92e7 | – | 1.14e7 | 1.28e7 | inactive
CG18628 (GeneID 39205) | 1 | 2.51e7 | 3.73e7 | – | 1.29e7 | 1.62e7 | inactive
Vha100-2 (GeneID 42216) | 1 | 5.44e7 | 4.35e7 | – | 2.41e7 | 1.83e7 | inactive
Cbp20 (GeneID 42166) | 1 | 1.42e7 | 1.83e7 | – | 9.23e6 | 4.78e7 | inactive
CG31683 + CG18858 | 1 | 3.98e7 | 4.94e7 | – | 1.94e7 | 2.01e7 | inactive
5-HT1B (GeneID 37191) | 1 | 4.63e7 | 3.58e7 | – | 2.02e7 | 1.81e7 | inactive
5-HT1B (GeneID 37191) | 2 | 3.14e7 | 4.01e7 | – | 1.82e7 | 2.21e7 | inactive
